{"sequences": {"note": "By UniProt entry, the sequences of proteins in these tests, tags left out.", "UniProt Q96LB1, whole entry": "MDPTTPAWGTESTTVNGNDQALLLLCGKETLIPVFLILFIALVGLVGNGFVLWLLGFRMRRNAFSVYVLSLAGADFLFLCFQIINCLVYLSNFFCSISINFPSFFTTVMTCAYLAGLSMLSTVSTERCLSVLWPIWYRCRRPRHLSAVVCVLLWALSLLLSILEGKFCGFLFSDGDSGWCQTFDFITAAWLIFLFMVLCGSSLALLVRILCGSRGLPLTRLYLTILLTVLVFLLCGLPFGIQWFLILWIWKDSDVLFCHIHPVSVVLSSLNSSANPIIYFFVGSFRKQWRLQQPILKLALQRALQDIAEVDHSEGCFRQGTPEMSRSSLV"}, "source": "patent US20250084063A1", "about": "(Incyte Corporation, priority 2023, published 2025)", "molecular_target": "MRGPRX2 (Homo sapiens, UniProt Q96LB1)", "experiment": "MRGPRX2 β-Arrestin assay", "settings": "read-out: MRGPRX2 β-Arrestin; PathHunter CHO-K1 MRGPRX2 β-Arrestin cell line; agonist Cortistatin 14 0.25 μM", "description": "Example C: MRGPRX2 β-Arrestin Assay\nThis assay measures compound inhibition of β-Arrestin recruitment, which is part of the G protein-independent pathway that results from the ligand-activated GPCR phosphorylation by specific GPCR kinases. The PathHunter CHO-K1 MRPGRX2 B-Arrestin Cell line stably expressing ProLink tagged MRGPRX2 and Enzyme Acceptor Tagged B-Arrestin was purchased from Eurofins DiscoverX, (Fremont, CA).\nThe cells were maintained in culture medium from the Europhins DiscoverX Cell Culture Kit-107 which includes FBS, hygromycin B and G418. For the assay, the cells were harvested and were resuspended with Cell Plating Reagent 2 (Eurofins DiscoverX). Cells were added 10000 cells in 25 µL/well to a 384-well black cell culture plate (Greiner VWR, Radnor, PA) which contained 125 nL/well of compound at a selected serially diluted concentration range or DMSO. The plate was incubated at 37° C. with 5% CO2 for 1 h. 2 μL/well of agonist Cortistatin 14 was diluted in Protein Dilution Buffer, (Eurofins DiscoverX) for a final concentration of 0.25 μM, was added and the plate was incubated at 37° C. with 5% CO2 for 90 min. […] Plates were read on the PHERAstar microplate reader (BMG Labtech Cary, NC) measuring luminescence 0.1 to 1 second per well. […]", "note": "The structures given here were assigned with low confidence; some may be wrong."}
{"smiles": "[2H]C([2H])([2H])NC(=O)N1CC(CNc2cc(C(F)(F)F)nc3ccc(Cl)cc23)(n2cc(C(F)F)cn2)C1", "values": [{"measurement": "IC50", "result": "0.1 to 100", "unit": "nM"}]}
